Here are results for 59 compounds from PubChem BioAssay AID2685 (National Center for Advancing Translational Sciences (NCATS), 2010).

Some of the results follow. Shown are side measurements of this screen, not its main read-out; they come without a call. Compounds called inactive in the main read-out are mostly missing here. The note in brackets gives the kind of curve behind each potency; many fits are weak.

The test can be described thus: qHTS Assay for Lipid Storage Modulators in Drosophila S3 Cells.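 For cell number change: cells counted by Cell Tracker Red CMTPX staining in the red channel.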 The conditions noted are these: BODIPY lipid droplet fluorescence, 18-24 h; for cell number change: measured here: cell count max response, cells fed with added oleic acid. An outline of the steps: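 Drosophila S3 cells got compounds at several concentrations plus oleic acid (400 uM solution). Laser-scanning cytometry with 488 nm excitation read lipid droplets at 500-530 nm and cells at 575-640 nm. Percent activity was relative to 20 uM Triacsin C.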
On the technique in general: Quantitative high-throughput screening tests each substance at several concentrations.

Where [1] appears, read: measured here: cell number channel AC50, cells fed with added oleic acid.
Where [2] appears, read: measured here: lipid fluorescence (Fed channel) AC50, cells fed with added oleic acid.

For the compound `O=C(Nc1ccc2c(c1)OCO2)c1ccc(Cl)cc1Cl`, the cell number change was found to be 23.2%.
For `Cc1ccc(Oc2c(C(N)=O)cc([N+](=O)[O-])cc2[N+](=O)[O-])cc1`, the cell number change was -81%. The AC50 (in general, the concentration at which the activity in the assay is half-maximal) under setting [1] was 20.6 µM [falling, partial curve]. In addition, the AC50 under setting [2] was 29.1 µM [falling, single point].
Regarding `Cc1cccc(OCCOCCN2CCNCC2)c1C`, the cell number change was -18.4%. Moreover, the AC50 under setting [2] was 0.00461 µM [rising, full curve, poor fit].
`COc1ccc(NC(=O)c2cccc(NC(=O)C3C4CC5OC(=O)C3C5C4)c2)c(OC)c1` (configuration not stated): the cell number change was determined as 169%. Also, the AC50 under setting [1] is 9.2 µM [rising, partial curve]. Further, the AC50 under setting [2] is 1.46 µM [rising, partial curve].
On to `COc1ccccc1NCc1cc(=O)oc2c(C)c(O)ccc12`, for which the cell number change came to 13.9%. For the same compound, the AC50 under setting [2] was 0.231 µM [falling, full curve, poor fit].
On to `O=C1/C(=C\Nc2ccc(OC(F)(F)F)cc2)CCN1c1ncccn1`, for which the cell number change worked out at 12.5%. Besides, under setting [2], the AC50 was 29.1 µM [rising, single point].
Turning to `COc1cccc2cc(C(=O)NCC3CCCO3)c(=O)oc12` (configuration not stated), the cell number change came to 2.89%. Under setting [2], the AC50 is 4.61 µM [rising, full curve].
`Cc1ccccc1-c1cc2nc(C)c(C)c(=O)n2[nH]1`: the cell number change is -1.75%. The AC50 under setting [2] is 6.51 µM [rising, single point].
As to `COc1ccc(CN2C(=O)c3cccnc3C2=O)cc1S(=O)(=O)N1CCOc2ccc(C)cc21`, the cell number change is -35%. For the same compound, the AC50 under setting [1] was 25.9 µM [falling, single point]. The AC50 under setting [2] is 10.3 µM [falling, partial curve].
Turning to `CN(c1ccc(C(=O)Nc2ccc3c(c2)OCCO3)cc1)S(C)(=O)=O`, the cell number change came out at 83.9%. The AC50 under setting [1] was 23.1 µM [rising, single point].
Consider `CCOC(=O)c1cc(-c2ccncc2)nc2c1c(C)nn2-c1ccccn1`, for which the cell number change was -19.5%. The AC50 under setting [2] is 1.84 µM [rising, full curve].
Turning to `O=C(Nc1ccc(Cl)cc1C(=O)Nc1ccccn1)c1ccco1`, the cell number change is 10.4%. Moreover, under setting [2], the AC50 was 4.11 µM [rising, full curve].
`CCN(CC)S(=O)(=O)c1cc(NC(=O)c2ccc3c(c2)NC(=O)C(C)S3)ccc1C` (configuration not stated): the cell number change is 3.23%. In addition, the AC50 under setting [2] is 0.92 µM [falling, partial curve].
`O=C(/C=C/c1ccccc1)N1CCN(c2ccccn2)CC1`: the cell number change worked out at 1.39%. Further, the AC50 under setting [2] was 29.1 µM [rising, single point].
With `CCC1CCC2(CC1)NC(CO)(CO)CO2` (configuration not stated), the cell number change was determined as 38.5%. For the same compound, the AC50 under setting [1] is 3.26 µM [rising, full curve, poor fit].
As for `CC(C)[C@H](NC(=O)c1ccco1)C(=O)OCC(=O)N1CC(=O)Nc2ccccc21`, the cell number change is 26.4%. In addition, the AC50 under setting [1] was 3.26 µM [rising, single point].
As to `Cc1cc(F)ccc1S(=O)(=O)Nc1ncnc2scc(-c3ccc(F)cc3)c12`, the cell number change is -42.3%. In addition, the AC50 under setting [1] is 32.6 µM [falling, single point]. In addition, the AC50 under setting [2] is 18.4 µM [falling, single point].
Turning to `Cc1cc(C(=O)NCc2ccccc2)c(=O)[nH]c1C`, the AC50 under setting [2] is 0.0058 µM [falling, full curve, poor fit].
For the compound `CN1C(=O)CSc2ccc(NC(=O)N3CCC(N4CCCCC4)CC3)cc21`, the cell number change was -0.36%. Further, the AC50 under setting [2] is 6.51 µM [falling, partial curve, poor fit].
Turning to `COc1ccc(NC(=O)CN2CCN(CC(=O)Nc3cc(OC)cc(OC)c3)CC2)cc1`, under setting [2], the AC50 was 6.51 µM [rising, partial curve].
For the compound `Cc1ccc(C)c(NC(=O)CN(C)C(C)C(=O)N2CC(C)CC(C)C2)c1` (configuration not stated), the cell number change came out at 31.7%. Under setting [1], the AC50 is 1.64 µM [rising, full curve, poor fit].
With `CCOc1cccc(-c2nnc3sc(-c4cc(OC)c(OC)c(OC)c4)nn23)c1`, the cell number change was -1.66%.
Consider `CC(OC(=O)Cn1cnc2c1c(=O)n(C)c(=O)n2C)C(=O)NCc1ccccc1` (configuration not stated), for which the cell number change is -0.723%. In addition, the AC50 under setting [1] is 6.51 µM [falling, single point].
Regarding `O=C(O)CCCC(=O)Nc1ccc(Sc2ccc([N+](=O)[O-])cc2)cc1`, the AC50 under setting [2] was 0.651 µM [rising, full curve].
In the case of `Cc1cccc[n+]1CC(=O)N1c2ccccc2Sc2ccccc21`, the cell number change is 2.74%. For the same compound, the AC50 under setting [2] is 0.184 µM [rising, full curve, poor fit].
In the case of `CC12CCC(=O)N1C(C(=O)OCC(=O)Nc1ccc(Cl)c(Cl)c1)CS2` (configuration not stated), the cell number change was determined as 23.1%. Moreover, the AC50 under setting [2] was 0.82 µM [falling, full curve, poor fit].
For `CCOc1cc(CNn2cn[nH]c2=S)cc(Cl)c1OCc1ccccc1F`, the cell number change is -54%. Besides, under setting [1], the AC50 was 16.4 µM [falling, partial curve]. Besides, the AC50 under setting [2] was 14.6 µM [falling, partial curve].
In the case of `O=C(CC(=O)c1ccccc1O)c1ccc(F)cc1`, the cell number change was -3.65%. For the same compound, the concentration at half-maximal activity (AC50) under setting [1] is 2.06 µM [rising, partial curve]. Under setting [2], the AC50 is 23.1 µM [falling, partial curve].
In the case of `O=C(CSc1ncccc1-c1nc2ccccc2[nH]1)NCc1ccco1`, the cell number change was -1.9%. Also, the AC50 under setting [2] was 0.0517 µM [rising, full curve].
Take `O=C(NNC(=O)c1cccnc1)Nc1cccc2ccccc12`: the cell number change stood at 37.5%.
Take `Cc1ccc(-n2nc(C)c3cc(C(=O)O)sc32)cc1`: the cell number change is 25.1%. Moreover, the AC50 under setting [1] was 6.51 µM [falling, single point]. Also, under setting [2], the AC50 is 6.51 µM [falling, single point].
As for `CCOc1cc(C(=O)OCC(=O)Nc2c(C)cccc2C)ccc1OCC(=O)N1CCOCC1`, the AC50 by setting is: under setting [1], 0.731 µM [falling, single point]; under setting [2], 29.1 µM [rising, single point].
For `O=C(O)C1C2C=CC(C2)C1C(=O)Nc1ccccc1Br` (configuration not stated), the AC50 under setting [2] is 29.1 µM [rising, single point].
As for `COc1ccc(S(=O)(=O)N2CN3CCN(C3)C2)cc1`, the cell number change was 37.2%. For the same compound, the AC50 under setting [1] is 7.31 µM [rising, partial curve, poor fit].
Take `CCCc1cc(C(=O)NCc2ccc(OC)cc2)no1`: the cell number change turned out to be 6.3%. The AC50 under setting [2] is 6.51 µM [rising, single point].
Take `CC(C)(C)NC(=O)CN(C(=O)C(=O)Nc1ccc2c(c1)OCCO2)N1CCOCC1`: the cell number change was 12.2%. Under setting [1], the AC50 was 0.82 µM [rising, full curve, poor fit].
For `Cc1cnc(C(=O)OCC(=O)N2CCN(S(=O)(=O)c3ccc(Cl)cc3)CC2)cn1`, the cell number change is -96%. For the same compound, the AC50 under setting [1] is 23.1 µM [falling, partial curve].
`O=C(NCCCNC(=O)c1cc(Cl)ccc1Cl)c1ccco1`: the cell number change is 4.76%. Further, the AC50 under setting [2] is 0.206 µM [falling, single point].
In the case of `COc1ccc(CN(CC(=O)NCc2ccccc2)C(=O)CCC(=O)Nc2ccccn2)cc1`, the cell number change was found to be 17.8%.
For `C=CCn1c(C(C)NC(=O)c2ccccc2)n[nH]c1=S` (configuration not stated), the cell number change was -18.3%. Besides, under setting [1], the AC50 was 3.26 µM [rising, partial curve, poor fit].
Consider `CC(=O)Nc1ccc(NC(=O)CCCCCN2C(=O)c3ccccc3C2=O)cc1`, for which the cell number change worked out at 55%. The AC50 under setting [1] is 29.1 µM [rising, single point].
For the compound `CCOC(=O)N1CCN(C(=O)c2oc3ccc(S(=O)(=O)N4CC(C)CC(C)C4)cc3c2C)CC1` (configuration not stated), the cell number change was -15.4%. Besides, the AC50 under setting [2] was 16.4 µM [falling, single point].
In the case of `CS(=O)(=O)N(CC(=O)N1CCCC1)c1ccc(Cl)cc1`, the cell number change is 6.59%. Under setting [2], the AC50 is 6.51 µM [rising, partial curve].
Take `COC(=O)/C(=C\Nc1ccc(Cl)cc1Cl)NC(=O)c1ccc(Cl)cc1Cl`: the cell number change is -42.9%. In addition, the AC50 under setting [1] was 18.4 µM [falling, partial curve, poor fit]. Moreover, the AC50 under setting [2] was 16.4 µM [falling, single point].
For `COc1ccc(C2(CNC(=O)c3ccc(OC)c([N+](=O)[O-])c3)CCCCC2)cc1OC`, the cell number change is -38.1%. Further, the half-maximal activity concentration (AC50) under setting [1] is 0.00461 µM [falling, full curve, poor fit]. Also, under setting [2], the AC50 is 0.731 µM [rising, single point].
In the case of `COc1ccccc1OCCC(=O)NNC(=O)c1ccccc1F`, the cell number change was -23.7%. In addition, the AC50 under setting [2] is 23.1 µM [falling, partial curve, poor fit].
For the compound `O=C(O)COc1nsnc1N1CCOCC1`, the cell number change was determined as 7.81%.
As for `CN(C(=O)COC(=O)/C=C/c1ccccc1[N+](=O)[O-])c1ccccc1`, the cell number change turned out to be 26.2%. For the same compound, under setting [1], the AC50 was 2.06 µM [rising, full curve, poor fit].
As to `COc1cccc(CN2CCN(Cc3cccc4c3OCO4)CC2CCO)c1` (configuration not stated), the cell number change stood at 13%. Further, under setting [2], the AC50 is 6.51 µM [rising, single point].
For `CCCn1c(=O)n(C)c(=O)c2c(SCC(=O)NCc3ccco3)nc(C3CC3)nc21`, the cell number change was found to be 24%. In addition, the half-maximal activity concentration (AC50) under setting [2] is 20.6 µM [rising, partial curve].
Consider `C#CCOC(=O)CCC(=O)NCCc1ccccc1`, for which the cell number change was -2.96%. In addition, the AC50 under setting [2] is 0.58 µM [falling, full curve].
For the compound `COc1ccccc1N(Cc1ccccc1)S(=O)(=O)c1cccc(C(=O)Nc2cccc(C)n2)c1`, the cell number change is 87.9%. Also, the AC50 under setting [1] was 29.1 µM [rising, single point].
Turning to `CN(C)S(=O)(=O)N1CCCC(C(=O)c2ccc(-c3ccccc3)c(F)c2)C1` (configuration not stated), the cell number change was -0.602%. Further, the AC50 under setting [2] is 29.1 µM [falling, single point].
Regarding `COC(=O)c1ccccc1NC(=O)C(CCS(C)(=O)=O)NC(C)=O` (configuration not stated), the cell number change came out at 7.88%. For the same compound, the AC50 under setting [1] was 6.51 µM [rising, single point].
Regarding `C=CCOc1ccc(CN(C)C(=O)c2ccc(CNS(=O)(=O)c3ccc(C)c(C)c3)cc2)cc1`, the cell number change amounted to 26.3%. The AC50 under setting [2] was 0.82 µM [rising, full curve].
Take `CC(=O)Nc1cc(C)nn1-c1nc(C)cc(C)n1`: the AC50 under setting [1] was 0.116 µM [rising, single point].
With `CCOCCCN(Cc1ccco1)C(=O)c1cc2c(=O)[nH]c3ccc(C)cc3c2s1`, the cell number change is -28.1%. Further, the half-maximal activity concentration (AC50) under setting [2] was 29.1 µM [falling, single point].
For `c1cnc(NCCNc2ncccn2)nc1`, the cell number change is -52.3%. In addition, the AC50 under setting [1] is 16.4 µM [falling, single point].
Consider `COCCn1c(-c2ccc(OC)c(OC)c2)nc2ccccc21`, for which the AC50 is 2.06 µM [rising, partial curve] under setting [1] and 0.731 µM [rising, single point] under setting [2].
